Chains of the proteins cited; added tags and fusions are not shown. Lines headed by an entry give the natural chain unless they say otherwise; changes in a name come on top.
UniProt Q9LN63: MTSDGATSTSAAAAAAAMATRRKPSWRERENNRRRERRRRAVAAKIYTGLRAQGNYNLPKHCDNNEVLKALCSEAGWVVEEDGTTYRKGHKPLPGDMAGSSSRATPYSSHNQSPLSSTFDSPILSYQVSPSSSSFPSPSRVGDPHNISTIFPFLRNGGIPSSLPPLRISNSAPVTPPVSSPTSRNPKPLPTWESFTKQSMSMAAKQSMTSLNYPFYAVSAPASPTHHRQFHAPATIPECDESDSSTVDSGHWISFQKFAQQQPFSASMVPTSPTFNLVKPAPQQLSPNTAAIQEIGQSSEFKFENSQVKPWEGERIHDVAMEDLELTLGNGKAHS
UniProt Q9ZNS0: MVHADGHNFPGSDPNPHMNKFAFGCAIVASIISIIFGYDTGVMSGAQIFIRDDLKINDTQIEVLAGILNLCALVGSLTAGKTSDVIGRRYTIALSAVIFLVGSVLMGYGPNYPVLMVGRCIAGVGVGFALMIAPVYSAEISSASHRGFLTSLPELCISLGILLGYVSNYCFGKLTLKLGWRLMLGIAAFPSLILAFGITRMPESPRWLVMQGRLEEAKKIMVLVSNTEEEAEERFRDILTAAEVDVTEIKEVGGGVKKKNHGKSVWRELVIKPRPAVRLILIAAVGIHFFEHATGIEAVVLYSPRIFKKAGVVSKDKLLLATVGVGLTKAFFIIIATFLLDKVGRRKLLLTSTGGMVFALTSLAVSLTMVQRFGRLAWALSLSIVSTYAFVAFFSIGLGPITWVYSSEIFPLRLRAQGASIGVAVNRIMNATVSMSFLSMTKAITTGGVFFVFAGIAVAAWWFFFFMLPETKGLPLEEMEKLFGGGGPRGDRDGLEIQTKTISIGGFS
UniProt Q52QU2: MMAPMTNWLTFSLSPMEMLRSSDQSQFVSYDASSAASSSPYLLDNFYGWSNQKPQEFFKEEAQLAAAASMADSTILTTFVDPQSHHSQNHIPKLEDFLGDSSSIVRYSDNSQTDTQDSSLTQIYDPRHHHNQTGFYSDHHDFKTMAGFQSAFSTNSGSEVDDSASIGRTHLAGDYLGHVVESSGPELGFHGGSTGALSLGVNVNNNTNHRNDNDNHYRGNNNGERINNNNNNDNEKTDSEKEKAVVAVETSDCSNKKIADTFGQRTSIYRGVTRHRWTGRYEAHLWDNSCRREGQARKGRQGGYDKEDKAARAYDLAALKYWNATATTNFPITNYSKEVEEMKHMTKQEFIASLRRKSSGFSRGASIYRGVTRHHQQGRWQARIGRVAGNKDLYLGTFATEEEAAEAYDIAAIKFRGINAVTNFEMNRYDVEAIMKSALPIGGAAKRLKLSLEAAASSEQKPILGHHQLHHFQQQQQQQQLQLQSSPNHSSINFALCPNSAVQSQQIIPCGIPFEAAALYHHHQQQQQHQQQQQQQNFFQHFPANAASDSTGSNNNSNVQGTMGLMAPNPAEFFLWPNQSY

According to publication doi:10.1101/2024.04.26.591257 (bioRxiv, 2024):

Experiments:
[1] = biological target: BES1D-mV (BES1D fused to mVenus) (Arabidopsis thaliana) (UniProt Q9LN63); test: FRET or BRET
[2] = biological target: T1, TPL-mV (TOPLESS fused to mVenus) (Arabidopsis thaliana, UniProt Q94AI7 1-1131); test: FRET or BRET
T1 sequence (looked up): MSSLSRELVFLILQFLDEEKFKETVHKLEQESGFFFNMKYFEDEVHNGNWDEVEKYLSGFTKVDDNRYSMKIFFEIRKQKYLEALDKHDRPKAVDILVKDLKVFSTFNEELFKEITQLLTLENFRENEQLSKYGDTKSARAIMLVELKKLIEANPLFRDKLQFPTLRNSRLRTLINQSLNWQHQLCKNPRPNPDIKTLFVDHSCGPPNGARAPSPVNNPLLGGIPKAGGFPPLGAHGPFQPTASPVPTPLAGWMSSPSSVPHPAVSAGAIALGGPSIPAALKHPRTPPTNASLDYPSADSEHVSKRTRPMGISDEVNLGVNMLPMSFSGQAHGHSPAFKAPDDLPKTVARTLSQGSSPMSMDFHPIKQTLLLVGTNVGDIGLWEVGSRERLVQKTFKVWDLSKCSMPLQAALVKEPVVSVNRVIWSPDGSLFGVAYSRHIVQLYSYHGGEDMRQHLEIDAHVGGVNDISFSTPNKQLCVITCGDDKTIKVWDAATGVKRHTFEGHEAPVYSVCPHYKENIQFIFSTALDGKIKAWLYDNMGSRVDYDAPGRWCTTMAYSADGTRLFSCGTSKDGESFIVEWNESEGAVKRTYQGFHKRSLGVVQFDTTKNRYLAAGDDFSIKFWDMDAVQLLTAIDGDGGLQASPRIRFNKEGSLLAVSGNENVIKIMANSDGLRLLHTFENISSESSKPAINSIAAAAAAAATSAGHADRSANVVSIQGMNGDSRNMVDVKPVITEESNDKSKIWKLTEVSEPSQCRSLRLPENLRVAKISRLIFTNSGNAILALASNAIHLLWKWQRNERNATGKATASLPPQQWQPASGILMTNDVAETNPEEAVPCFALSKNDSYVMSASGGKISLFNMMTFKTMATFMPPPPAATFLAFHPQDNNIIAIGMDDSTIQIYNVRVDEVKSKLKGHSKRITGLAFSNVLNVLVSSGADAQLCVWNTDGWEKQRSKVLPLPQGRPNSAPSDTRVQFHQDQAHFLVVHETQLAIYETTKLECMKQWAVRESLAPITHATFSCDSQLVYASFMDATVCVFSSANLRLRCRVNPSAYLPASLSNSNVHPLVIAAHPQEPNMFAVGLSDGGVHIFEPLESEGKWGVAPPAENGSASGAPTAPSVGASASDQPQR

[3] = biological target: T2, WOX5-mV(N) (WOX5 fused to the N-terminal part of mVenus) (Arabidopsis thaliana) (UniProt Q8H1D2); test: split reporter
T2 sequence: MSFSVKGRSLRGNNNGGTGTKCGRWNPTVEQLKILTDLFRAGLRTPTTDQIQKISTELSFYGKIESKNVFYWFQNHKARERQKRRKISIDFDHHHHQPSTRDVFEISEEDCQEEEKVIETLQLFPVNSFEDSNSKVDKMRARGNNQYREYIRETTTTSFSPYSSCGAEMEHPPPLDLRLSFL

[4] = biological target: T3, BRAVO-mV(N) (BRAVO fused to the N-terminal part of mVenus) (Arabidopsis thaliana) (UniProt Q6R053); test: split reporter
T3 sequence: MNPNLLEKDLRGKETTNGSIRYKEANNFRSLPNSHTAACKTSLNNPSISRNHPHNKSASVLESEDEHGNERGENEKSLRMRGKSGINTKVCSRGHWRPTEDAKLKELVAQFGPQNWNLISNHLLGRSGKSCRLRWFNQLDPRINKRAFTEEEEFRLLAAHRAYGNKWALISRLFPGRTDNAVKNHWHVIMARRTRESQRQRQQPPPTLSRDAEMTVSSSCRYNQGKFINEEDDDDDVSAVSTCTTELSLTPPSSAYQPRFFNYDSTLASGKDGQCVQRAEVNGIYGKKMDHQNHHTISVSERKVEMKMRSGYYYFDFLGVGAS

“PLT3ΔPrD-mCh (PLT3 with its prion-like domains deleted, fused to mCherry) (from UniProt Q9ZNS0)” was tested, and the binding [1] was “no binding” and the binding [2] was “no binding”.
With “PLT3-mV(C) (PLT3 fused to the C-terminal part of mVenus) (from UniProt Q52QU2)” the binding [3] was “binds” and the binding [4] was “binds”.

These are yes or no findings as the source states them, for the method shown. In cells and extracts the contact can be indirect. For some of these results: A result given as binding can be weak or reduced; the word gives no strength. For some of these results: Where a sequence is shown, tags or fusion partners need not be part of it.
